From publication PMC9859813

Target: C-terminal recombinant of TRIM15 (GST fusion)
Test: pull-down; GST fusion proteins immobilised on anti-GST magnetic beads, incubated with cell lysates (RIPA buffer) for 4 h; washed four times; Western blot; only the target purified

B1: HA-LASP1 (protein, UniProt Q14847 1-261)
chain: MNPNCARCGKIVYPTEKVNCLDKFWHKACFHCETCKMTLNMKNYKGYEKKPYCNAHYPKQSFTMVADTPENLRLKQQSELQSQVRYKEEFEKNKGKGFSVVADTPELQRIKKTQDQISNIKYHEEFEKSRMGPSGGEGMEPERRDSQDGSSYRRPLEQQQPHHIPTSAPVYQQPQQQPVAQSYGGYKEPAAPVSIQRSAPGGGGKRYRAVYDYSAADEDEVSFQDGDTIVNVQQIDDGWMYGTVERTGDTGMLPANYVEAI
Question: B1 was tested. Which binding did it give?
Answer: binds

No constants are given. Whether binding was seen depends on the method and setting. In cells and extracts the contact can be indirect. Binding calls can cover weak binding; strength is not graded here. Sequences can lack the tags named with a protein.
